Taken from: PubChem BioAssay AID1259266 (Sanger Institute, 2017)

- Test: 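Find knock-downs that kill LS123 cells or act with anchor drugs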 (primary screen)
- Cells: LS123 human colorectal cancer cells
- Knock-down reagent: siRNA pool against human genes
- Challenge: anchor drugs BYL719 (1 µM), cetuximab (5 µg/ml) or trametinib (10 nM), each chosen to barely slow growth alone; DMSO vehicle as the drug-free arm
- Measured: 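Viability relative to non-targeting control pools, replicate mean, with a robust z-score for knock-down alone and synergy scores for each anchor drug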
- Scale: robust z-score, knock-down alone: higher = more cells surviving after knock-down; viability, knock-down alone: higher = more viable cells; synergy score with trametinib and synergy score with BYL719 and synergy score with cetuximab: higher = stronger synthetic lethality with drug
- Hit rule: 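a knock-down counts as essential if its z-score without drug is under -3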
- Meaning of the calls: active = essential (knock-down alone cuts viability); inactive = no change
In all, the deposit lists 794 reagents; below is an unselected part. 16 of them (2%) count as active. 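Calls reflect knock-down alone, not drug synergy; viability seems capped at 1 and z-scores at 0.585.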 No sequences are given here. Not given: the amount of reagent, the time to read-out.

target | robust z-score, knock-down alone | viability, knock-down alone (fraction of control) | synergy score with trametinib | synergy score with BYL719 | synergy score with cetuximab | outcome
CDK19 (cyclin dependent kinase 19) | 0.569 | 0.999 | -0.0803 | -0.0901 | -0.0132 | inactive
ADPGK (ADP dependent glucokinase) | -0.642 | 0.927 | 0.0496 | -0.121 | 0.0376 | inactive
AK3 (adenylate kinase 3) | 0.585 | 1 | -0.109 | -0.0553 | -0.0122 | inactive
IGF1R (insulin like growth factor 1 receptor) | 0.585 | 1 | -0.164 | -0.00513 | -0.0122 | inactive
BCOR (BCL6 corepressor) | 0.585 | 1 | -0.151 | -0.0398 | -0.0122 | inactive
SHPK (sedoheptulokinase) | 0.585 | 1 | -0.145 | -0.129 | -0.0122 | inactive
CAD | 0.585 | 1 | -0.137 | -0.106 | -0.0122 | inactive
WNK2 (WNK lysine deficient protein kinase 2) | 0.585 | 1 | -0.125 | -0.112 | -0.0122 | inactive
PRKCH (protein kinase C eta) | -1.48 | 0.877 | 0.0585 | -0.00996 | 0.0189 | inactive
NEK3 (NIMA related kinase 3) | -0.854 | 0.915 | 0.000662 | 0.0264 | -0.017 | inactive
EGFR (epidermal growth factor receptor) | -0.203 | 0.953 | -0.117 | -0.0556 | -0.0137 | inactive
DTYMK (deoxythymidylate kinase) | 0.585 | 1 | -0.186 | -0.159 | -0.0122 | inactive
PIP5KL1 (phosphatidylinositol-4-phosphate 5-kinase like 1) | 0.585 | 1 | -0.186 | -0.159 | -0.0122 | inactive
IP6K3 (inositol hexakisphosphate kinase 3) | -1.71 | 0.863 | 0.0465 | -0.0256 | 0.00761 | inactive
TTBK1 (tau tubulin kinase 1) | -1.02 | 0.905 | -0.058 | -0.0148 | -0.0546 | inactive
WIPF1 (WAS/WASL interacting protein family member 1) | -2.4 | 0.823 | 0.0369 | -0.11 | 0.0255 | inactive
MVK (mevalonate kinase) | 0.585 | 1 | -0.145 | -0.0577 | -0.0122 | inactive
TCF7L2 (transcription factor 7 like 2) | 0.585 | 1 | -0.186 | -0.159 | -0.0122 | inactive
PFKFB1 (6-phosphofructo-2-kinase/fructose-2,6-biphosphatase 1) | 0.229 | 0.979 | 0.0903 | 0.0774 | 0.157 | inactive
PINK1 (PTEN induced kinase 1) | 0.571 | 0.999 | -0.0184 | 0.00703 | 0.0496 | inactive
MAPKAPK2 (MAPK activated protein kinase 2) | 0.585 | 1 | -0.186 | -0.0801 | -0.0122 | inactive
KCNH8 (potassium voltage-gated channel subfamily H member 8) | 0.585 | 1 | 0.0724 | 0.00357 | -0.0122 | inactive
ELF3 (E74 like ETS transcription factor 3) | 0.585 | 1 | 0.0825 | -0.0097 | 0.0149 | inactive
PTK7 (protein tyrosine kinase 7 (inactive)) | -2.2 | 0.835 | -0.0634 | -0.034 | 0.0277 | inactive
GOLGA5 (golgin A5) | 0.585 | 1 | -0.143 | -0.132 | -0.0122 | inactive
TAOK2 (TAO kinase 2) | 0.585 | 1 | -0.133 | -0.136 | -0.0122 | inactive
RPS6KB1 (ribosomal protein S6 kinase B1) | 0.585 | 1 | -0.0403 | -0.0966 | -0.0122 | inactive
SYNCRIP (synaptotagmin binding cytoplasmic RNA interacting protein) | -1.59 | 0.871 | 0.0218 | 0.0351 | 0.0653 | inactive
AAK1 (AP2 associated kinase 1) | -2.13 | 0.839 | -0.0525 | 0.0305 | 0.0977 | inactive
ITPKB (inositol-trisphosphate 3-kinase B) | 0.585 | 1 | -0.186 | -0.159 | -0.0122 | inactive
BPTF (bromodomain PHD finger transcription factor) | 0.13 | 0.973 | -0.0116 | 0.0323 | 0.0212 | inactive

As entered above:
Under “viability, knock-down alone (fraction of control)”, EGFR (epidermal growth factor receptor) reads 0.953
Under “synergy score with trametinib”, SYNCRIP (synaptotagmin binding cytoplasmic RNA interacting protein) is entered as 0.0218

Additional results follow.
target | robust z-score, knock-down alone | viability, knock-down alone (fraction of control) | synergy score with trametinib | synergy score with BYL719 | synergy score with cetuximab | outcome
ERN2 (endoplasmic reticulum to nucleus signaling 2) | 0.585 | 1 | -0.0733 | -0.0847 | 0.0356 | inactive
PFKL (phosphofructokinase, liver type) | 0.585 | 1 | -0.0994 | -0.0707 | -0.0122 | inactive
RIOK3 (RIO kinase 3) | -1.91 | 0.852 | -0.173 | -0.101 | -0.0374 | inactive
DLG3 (discs large MAGUK scaffold protein 3) | 0.585 | 1 | -0.113 | -0.159 | -0.0122 | inactive
CDKL3 (cyclin dependent kinase like 3) | 0.585 | 1 | -0.186 | -0.159 | -0.0122 | inactive
HUNK (hormonally up-regulated Neu-associated kinase) | -0.807 | 0.917 | 0.0814 | 0.0237 | -0.0939 | inactive
LMTK1 (lemur tail kinase 1) | -1.41 | 0.882 | -0.0799 | -0.126 | -0.0856 | inactive
EPHB6 (EPH receptor B6) | 0.51 | 0.996 | -0.0544 | -0.0335 | -0.0166 | inactive
EXOSC10 (exosome component 10) | 0.585 | 1 | -0.0461 | -0.104 | -0.0122 | inactive
RPS6KA6 (ribosomal protein S6 kinase A6) | 0.585 | 1 | -0.0598 | -0.0994 | -0.0122 | inactive
PXK (PX domain containing serine/threonine kinase like) | 0.585 | 1 | -0.0928 | -0.159 | -0.0122 | inactive
STK32C (serine/threonine kinase 32C) | 0.585 | 1 | -0.128 | -0.159 | -0.0122 | inactive
GUK1 (guanylate kinase 1) | 0.585 | 1 | -0.11 | -0.088 | -0.0122 | inactive
PRKCD (protein kinase C delta) | 0.585 | 1 | -0.0632 | -0.0993 | -0.0122 | inactive
TAB1 (TGF-beta activated kinase 1 (MAP3K7) binding protein 1) | 0.585 | 1 | -0.114 | -0.155 | -0.0122 | inactive
TEC (tec protein tyrosine kinase) | 0.245 | 0.98 | -0.0679 | -0.132 | 0.00488 | inactive
CHD9 (chromodomain helicase DNA binding protein 9) | -1.58 | 0.871 | -0.127 | -0.202 | -0.0833 | inactive
CAMK4 (calcium/calmodulin dependent protein kinase IV) | 0.585 | 1 | -0.178 | -0.129 | -0.0122 | inactive
PAK2 (p21 (RAC1) activated kinase 2) | 0.585 | 1 | -0.104 | -0.0956 | -0.0122 | inactive
